Results published in patent publication US9801960B2, “Probe for a biological specimen and labelling method and screening method using the probe” (CANON KABUSHIKI KAISHA, priority 2008, dated 2017).
At least one compound was matched to its structure with a doubt left.

Tests used:
[1] = tested on: Zebrafish juveniles; experiment: In vivo labelling of Zebrafish juveniles with probe for biological specimen; conditions: 10 ng/mL in water, 1 hour, stereoscopic microscope
Method: Five juveniles of Zebrafish were put into one well of a well plate together with rearing water. After rearing water had been discharged, 1 mL of distilled water was added to the well, and a solution of a staining compound (1) in DMSO was further added thereto so as to achieve a concentration of 10 ng/mL, followed by gentle stirring (pipetting). Further, Egg Water was prepared by dissolving artificial seawater SEALIFE (manufactured by Marinetech Co., Ltd.) in distilled water at a concentration of 60 mg/L. After the whole had been left to stand for 1 hour, distilled water in the well was discharged and replaced by 1 mL of fresh Egg Water. In addition, such an operation that Egg Water was discharged and replaced by 1 mL of fresh Egg Water was repeated twice. […]
The staining property of each of the staining compounds of Labelled Examples 1 to 78 and Labelled Comparative Examples 1 and 2 was visually evaluated (+++: stained and −: no stained).
The fluorescence intensity of each of the staining compounds of Labelled Examples 1 to 78 and Labelled Comparative Examples 1 and 2 was visually evaluated (+++: strongly observed, ++: moderately observed, +: weakly observed, and −: no stained).

[2] = Excitation and fluorescence emission wavelength measurement; assay type: physicochemical; parameters: Stokes shift (λem − λex): unit not given here; conditions: aqueous solution: 10 mg/mL solution in DMSO diluted 500-fold with purified water
Method: It should be noted that the excitation wavelength and the fluorescence emission wavelength of the staining compound were determined by measuring an aqueous solution, which had been obtained by diluting 500-fold a 10 mg/mL solution of the staining compound in DMSO with purified water, with a fluorescence spectrophotometer FL 4500 manufactured by Hitachi High-Technologies Corporation.

For O=C1OC2(c3ccc(O)cc3Oc3cc(O)ccc32)c2ccccc21 [fluorescein, reference compound], the “Site(s) to be labelled” value [1] was “blood vessel”, the Excitation wavelength λex [2] was 494 nm and the Fluorescence emission wavelength λem [2] was 521 nm. For the same compound, the “Stokes shift (λem − λex)” value [2] was 27.
